Assay results as given in patent US7511167B2, “Two-photon dyes for real-time imaging of lipid rafts” (Korea University Industry and Academy Cooperation Foundation, priority 2006, dated 2009).
Some entries share one result that the patent states for a list of compounds.

Assay: Reflection tests of polarity of liposomes (Test Example 3)
Type: physicochemical
Settings: regardless of the kind of the liposomes
Experimental: Three kinds of liposomes having different fluidity (polarity) were prepared to examine how much the two-photon dyes prepared in Example 1 and Comparative Example 1 reflected the polarity of the liposomes. Specifically, DOPC liposomes were prepared from 1,2-dioleoyl-sn-glycerol-3-phosphocholine (DOPC) having unsaturated fatty acids so as to reflect the fluidity of phospholipids of plasma membranes. The DOPC liposomes were relatively fluid. DOPC/Sphingo/Chol liposomes were composed of DOPC, sphingomyelin and cholesterol in the same ratio so as to simultaneously reflect phospholipids and lipid rafts. […] However, the fluorescence intensity of the liposomes increased with the hydrophobicity of the liposomes in the order: DOPC<DOPC/Sphingo/Chol<DPPC. […] Referring to FIG. 3c, the maximum fluorescence wavelength of Laurdan in DPPC is 440 nm and the fluorescence spectrum of Laurdan in DOPC is broader.
In the meanwhile, the fluorescence wavelength bands of Laurdan in DOPC/Sphingo/Chol and DPPC were confirmed to overlap almost completely. […] In contrast, TPD1 prepared in Example 1 emitted fluorescence of 442 nm in DPPC and fluorescence of 486 nm in DOPC (FIG. 3d). In addition, the fluorescence spectrum of TPD1 in the DOPC/Sphingo/Chol liposomes is broad and almost the same as the sum of the spectra in the DPPC and DOPC liposomes. […]

In the case of `CCCCCCCCCCCC(=O)c1ccc2cc(N(C)C)ccc2c1` [Laurdan, reference compound], the “maximum one-photon absorption wavelength in liposomes” value is reported as 360-395 nm.

With `CCCCCCCCCCCC(=O)c1ccc2cc(N(C)CC(=O)O)ccc2c1` [TPD1] the “maximum one-photon absorption wavelength in liposomes” value was 360-395 nm.
